This passage reports binding results from PMC2693666.

Amino acid sequences for entries named in this document (tags omitted). Residues count along the entry.
UniProt Q9QUG3, residues 26-155: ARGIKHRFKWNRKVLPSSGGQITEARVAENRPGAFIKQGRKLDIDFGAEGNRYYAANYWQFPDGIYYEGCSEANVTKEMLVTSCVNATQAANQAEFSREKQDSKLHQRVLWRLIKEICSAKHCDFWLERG

Holding throughout (experiment): ELISA; only the target purified
Background: In an ELISA, binding on a coated surface is turned into a signal by an enzyme label.

Assay [1] concerns the target T1, rat alpha-1-inhibitor-3 (α1I3), native form, purified (rat) (UniProt P14046).
T1 sequence: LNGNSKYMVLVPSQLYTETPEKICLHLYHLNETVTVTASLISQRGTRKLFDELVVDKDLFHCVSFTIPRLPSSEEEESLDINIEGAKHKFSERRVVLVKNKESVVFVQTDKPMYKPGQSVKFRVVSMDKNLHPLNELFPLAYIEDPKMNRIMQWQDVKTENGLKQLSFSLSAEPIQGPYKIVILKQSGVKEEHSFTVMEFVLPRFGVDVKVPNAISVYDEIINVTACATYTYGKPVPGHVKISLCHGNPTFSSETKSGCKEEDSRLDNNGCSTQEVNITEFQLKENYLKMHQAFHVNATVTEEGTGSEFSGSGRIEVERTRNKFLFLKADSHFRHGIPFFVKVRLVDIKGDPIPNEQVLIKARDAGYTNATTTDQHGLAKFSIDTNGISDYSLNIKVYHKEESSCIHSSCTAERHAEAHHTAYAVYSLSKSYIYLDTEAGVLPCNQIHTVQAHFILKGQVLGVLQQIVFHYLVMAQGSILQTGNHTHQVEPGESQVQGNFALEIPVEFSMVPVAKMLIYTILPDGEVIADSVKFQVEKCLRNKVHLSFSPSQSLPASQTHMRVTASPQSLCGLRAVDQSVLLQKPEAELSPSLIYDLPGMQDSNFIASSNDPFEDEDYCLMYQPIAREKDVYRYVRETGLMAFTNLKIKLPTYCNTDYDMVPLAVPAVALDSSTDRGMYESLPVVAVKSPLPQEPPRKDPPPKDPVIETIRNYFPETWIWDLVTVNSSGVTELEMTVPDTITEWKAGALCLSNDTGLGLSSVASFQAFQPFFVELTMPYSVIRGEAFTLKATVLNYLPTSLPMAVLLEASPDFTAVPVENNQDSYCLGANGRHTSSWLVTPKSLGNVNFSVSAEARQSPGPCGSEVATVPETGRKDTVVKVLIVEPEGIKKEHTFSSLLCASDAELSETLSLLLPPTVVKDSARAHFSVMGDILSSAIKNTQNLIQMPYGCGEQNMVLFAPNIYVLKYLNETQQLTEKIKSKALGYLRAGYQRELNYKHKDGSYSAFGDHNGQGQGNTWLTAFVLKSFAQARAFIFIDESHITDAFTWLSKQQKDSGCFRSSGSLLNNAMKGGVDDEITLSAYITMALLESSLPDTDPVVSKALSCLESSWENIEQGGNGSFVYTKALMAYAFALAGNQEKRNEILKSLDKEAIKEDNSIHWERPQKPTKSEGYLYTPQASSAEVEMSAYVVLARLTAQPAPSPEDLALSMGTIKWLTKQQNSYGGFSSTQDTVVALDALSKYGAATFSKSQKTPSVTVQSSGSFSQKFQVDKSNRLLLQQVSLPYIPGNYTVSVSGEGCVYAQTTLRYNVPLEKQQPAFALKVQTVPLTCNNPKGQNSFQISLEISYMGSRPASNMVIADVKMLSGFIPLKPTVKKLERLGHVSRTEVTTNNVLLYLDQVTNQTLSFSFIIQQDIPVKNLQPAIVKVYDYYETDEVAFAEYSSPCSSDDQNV

Assay [2] has as its target T2, rat alpha-1-inhibitor-3 (α1I3), methylamine-activated (FAST) form (rat) (UniProt P14046).
T2 sequence (chain, methylamine-activated): T1 sequence

The target in a further assay is recMoDpl(26–155) (mouse) (UniProt Q9QUG3).

No constants are given. Whether binding was seen depends on the method and setting. Some entries that bind do so weakly or less than the wild type.

Regarding “MoPrP-Fc (from UniProt P04925 23-231) (Fc fusion)”, the values for the binding entry (in assay [1]; in assay [2]; with recMoDpl(26–155) (mouse)) were “no binding”, “no binding” and “binds”, respectively.
